From paper PMC12410181 come the findings set out here.

The chains behind the UniProt entries cited, without tags or fusion partners.
UniProt O00571: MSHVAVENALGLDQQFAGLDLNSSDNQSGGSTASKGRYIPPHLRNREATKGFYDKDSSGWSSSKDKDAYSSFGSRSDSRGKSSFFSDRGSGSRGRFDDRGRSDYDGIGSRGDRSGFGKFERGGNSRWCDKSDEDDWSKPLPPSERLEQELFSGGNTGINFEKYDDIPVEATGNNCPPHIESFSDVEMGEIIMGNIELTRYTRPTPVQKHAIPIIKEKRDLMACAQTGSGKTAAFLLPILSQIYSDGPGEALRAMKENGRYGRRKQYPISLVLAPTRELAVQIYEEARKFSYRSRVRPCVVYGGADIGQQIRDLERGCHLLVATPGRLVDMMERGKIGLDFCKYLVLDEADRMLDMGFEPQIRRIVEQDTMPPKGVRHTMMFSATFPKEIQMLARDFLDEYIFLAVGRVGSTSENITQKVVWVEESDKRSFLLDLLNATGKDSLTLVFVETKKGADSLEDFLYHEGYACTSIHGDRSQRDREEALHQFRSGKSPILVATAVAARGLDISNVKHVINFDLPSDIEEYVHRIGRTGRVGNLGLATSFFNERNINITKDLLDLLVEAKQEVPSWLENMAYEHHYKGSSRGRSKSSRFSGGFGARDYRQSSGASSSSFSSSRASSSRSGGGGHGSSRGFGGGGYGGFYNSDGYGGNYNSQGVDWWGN
UniProt P06493: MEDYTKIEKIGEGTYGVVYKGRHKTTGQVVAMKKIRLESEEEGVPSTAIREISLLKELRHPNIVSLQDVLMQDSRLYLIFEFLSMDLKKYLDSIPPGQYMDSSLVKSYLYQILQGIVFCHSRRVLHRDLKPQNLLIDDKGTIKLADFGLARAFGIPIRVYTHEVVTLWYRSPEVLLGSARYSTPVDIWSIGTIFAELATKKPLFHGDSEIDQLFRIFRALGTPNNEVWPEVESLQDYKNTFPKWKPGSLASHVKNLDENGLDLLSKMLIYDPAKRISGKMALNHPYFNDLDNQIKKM
UniProt O00429: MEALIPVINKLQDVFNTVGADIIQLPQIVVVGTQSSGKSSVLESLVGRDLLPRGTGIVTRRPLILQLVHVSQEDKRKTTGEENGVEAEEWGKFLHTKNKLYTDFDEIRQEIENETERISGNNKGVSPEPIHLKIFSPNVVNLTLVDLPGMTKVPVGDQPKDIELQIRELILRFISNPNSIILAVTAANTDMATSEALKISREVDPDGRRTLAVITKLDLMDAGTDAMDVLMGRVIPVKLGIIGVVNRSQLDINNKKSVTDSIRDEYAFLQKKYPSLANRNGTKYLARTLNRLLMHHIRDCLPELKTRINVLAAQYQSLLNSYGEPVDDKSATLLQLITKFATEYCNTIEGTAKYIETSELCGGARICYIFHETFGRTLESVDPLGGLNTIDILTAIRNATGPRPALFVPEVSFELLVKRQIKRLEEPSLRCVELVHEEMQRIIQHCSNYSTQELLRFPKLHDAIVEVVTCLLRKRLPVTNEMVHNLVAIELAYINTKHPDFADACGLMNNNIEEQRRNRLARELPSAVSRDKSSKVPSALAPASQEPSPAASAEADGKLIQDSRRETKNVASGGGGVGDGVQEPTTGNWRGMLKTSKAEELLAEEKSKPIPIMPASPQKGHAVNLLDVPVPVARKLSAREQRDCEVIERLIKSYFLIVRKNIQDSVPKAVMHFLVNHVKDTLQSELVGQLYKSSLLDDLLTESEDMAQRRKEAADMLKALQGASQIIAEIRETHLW

No constants are given. Whether binding was seen depends on the method and setting. Binding seen in cells or lysates may run through a third protein. Some results given as binding are weak or reduced against the parent protein; the word gives no strength.

Assay [1] deals with DEAD-box polypeptide 3, X-linked (DDX3), endogenous (human (endogenous in BT549)) (UniProt O00571). Nature of the assay: co-IP; endogenous proteins, mitochondrial and cytosol fractions, with or without CCCP; mild lysis buffer (25 mM Tris-HCl pH 7.4, 150 mM NaCl, 1 mM EDTA, 1 % NP-40), protein A/G agarose, 4 °C overnight; Western blot.
Assay [2] addresses cyclin-dependent kinase 1 (CDK1), endogenous (human (endogenous in BT549)) (UniProt P06493). In words: co-IP; endogenous proteins of BT549 shCon or shDDX3 cells with or without PA (also RK33 treatment), immunoprecipitated with CDK1 antibody; mild lysis buffer, protein A/G agarose, 4 °C overnight; Western blot for DRP1 and DDX3. (In general: A western blot detects proteins with antibodies after separation by electrophoresis.)

In assay [3] the target is DEAD-box polypeptide 3, X-linked (DDX3), endogenous (human (endogenous in BT549)) (UniProt O00571). In words: co-IP; endogenous proteins of BT549 cells (also shCon or shDDX3) treated with or without PA or CCCP, immunoprecipitated with DDX3 antibody; mild lysis buffer, protein A/G agarose, 4 °C overnight; Western blot for DRP1 and CDK1.
Another assay deals with exogenous DDX3 (UniProt O00571). Nature of the assay: co-IP; exogenously expressed DDX3 and DRP1; mild lysis buffer (25 mM Tris-HCl pH 7.4, 150 mM NaCl, 1 mM EDTA, 1 % NP-40), protein A/G agarose, 4 °C overnight; Western blot.

For the substance “dynamin-related protein 1 (DRP1), endogenous (from UniProt O00429 1-736)”, the binding result in assay [1], in assay [2] and in assay [3] was “binds” throughout.

As to “exogenous DRP1 (HA-DRP1) (from UniProt O00429 1-736)”, in the assay with exogenous DDX3, the binding entry was “binds”.

Take “DEAD-box polypeptide 3, X-linked (DDX3), endogenous (from UniProt O00571 1-662)”: the binding entry in assay [2] is recorded as “binds”.
